{"source": "PubChem BioAssay AID1671195 (Yale University, 2021)", "assay": "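Regulators of LDL receptor activity judged by labelled LDL uptake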 (primary screen)", "system": "human Huh7 hepatoma cells", "knock-down reagent": "siRNA pool against human genes, 18 nM", "time to read-out": "about 2 to 2.5 days of knockdown, then 8 h LDL uptake", "conditions": "DiI-labelled LDL at 30 µg/ml for 8 h, in lipoprotein-deficient serum medium", "measured": "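Per-cell DiI-LDL intensity by automated imaging; well means scaled to the plate median and given as a robust z-score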", "scale": "robust z-score: higher = more LDL uptake after knockdown", "active means": "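Active when two or more replicates show a robust z-score above 2 or below -2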", "note": "In all, the deposit lists about 22,000 reagents; shown is a random part of them. About 1,510 of all reagents (6.9%) count as active. 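Active includes knockdowns raising or lowering LDL uptake; positive z-scores mean more uptake, negative mean less.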"}
{"gene": "ACMSD", "robust z-score, replicate 1": 0.404, "robust z-score, replicate 2": 0.532, "robust z-score, replicate 3": -0.173, "activity call": "inactive"}
{"gene": "SAXO6", "robust z-score, replicate 1": -0.162, "robust z-score, replicate 2": -0.268, "robust z-score, replicate 3": -0.44, "activity call": "inactive"}
{"gene": "TACR3", "robust z-score, replicate 1": 0.562, "robust z-score, replicate 2": -1.04, "robust z-score, replicate 3": 0.526, "activity call": "inactive"}
{"gene": "AKAP10", "robust z-score, replicate 1": -1.6, "robust z-score, replicate 2": -1.85, "robust z-score, replicate 3": -1.47, "activity call": "inactive"}
{"gene": "RILPL1", "robust z-score, replicate 1": 0.647, "robust z-score, replicate 2": 0.44, "robust z-score, replicate 3": 0.506, "activity call": "inactive"}
{"gene": "EFEMP2", "robust z-score, replicate 1": 0.866, "robust z-score, replicate 2": 1.55, "robust z-score, replicate 3": 1.69, "activity call": "inactive"}
{"gene": "CPSF3", "robust z-score, replicate 1": -0.257, "robust z-score, replicate 2": -0.481, "robust z-score, replicate 3": -0.419, "activity call": "inactive"}
{"gene": "GATA3-AS1", "robust z-score, replicate 1": -0.283, "robust z-score, replicate 2": -0.843, "robust z-score, replicate 3": -0.921, "activity call": "inactive"}
{"gene": "SERTM2", "robust z-score, replicate 1": 1.44, "robust z-score, replicate 2": 1.49, "robust z-score, replicate 3": 2, "activity call": "inactive"}
{"gene": "LGMN", "robust z-score, replicate 1": -1.59, "robust z-score, replicate 2": -1.61, "robust z-score, replicate 3": -1.58, "activity call": "inactive"}
{"gene": "BICRA", "robust z-score, replicate 1": -1.12, "robust z-score, replicate 2": 1.35, "robust z-score, replicate 3": 1.55, "activity call": "inactive"}
{"gene": "DLD", "robust z-score, replicate 1": -1.11, "robust z-score, replicate 2": -0.974, "robust z-score, replicate 3": -0.916, "activity call": "inactive"}
{"gene": "ZNF830", "robust z-score, replicate 1": 1.97, "robust z-score, replicate 2": 2.01, "robust z-score, replicate 3": 1.54, "activity call": "inactive"}
{"gene": "OR4C11", "robust z-score, replicate 1": 0.181, "robust z-score, replicate 2": -0.361, "robust z-score, replicate 3": 0.105, "activity call": "inactive"}
{"gene": "LOC440685 (retired record)", "robust z-score, replicate 1": -0.743, "robust z-score, replicate 2": -0.256, "robust z-score, replicate 3": -0.00574, "activity call": "inactive"}
{"gene": "MCL1", "robust z-score, replicate 1": -1.2, "robust z-score, replicate 2": -1.49, "robust z-score, replicate 3": -0.872, "activity call": "inactive"}
{"gene": "CCDC40", "robust z-score, replicate 1": -0.471, "robust z-score, replicate 2": 0.423, "robust z-score, replicate 3": -0.254, "activity call": "inactive"}
{"gene": "S100G", "robust z-score, replicate 1": 1.14, "robust z-score, replicate 2": 0.565, "robust z-score, replicate 3": 0.532, "activity call": "inactive"}
{"gene": "CXCL16", "robust z-score, replicate 1": 0.0659, "robust z-score, replicate 2": 0.332, "robust z-score, replicate 3": 0.642, "activity call": "inactive"}
{"gene": "DUSP13B", "robust z-score, replicate 1": 0.166, "robust z-score, replicate 2": -0.392, "robust z-score, replicate 3": -0.108, "activity call": "inactive"}
{"gene": "CIAO2AP2", "robust z-score, replicate 1": -0.219, "robust z-score, replicate 2": 0.365, "robust z-score, replicate 3": 0.64, "activity call": "inactive"}
{"gene": "ZFP3", "robust z-score, replicate 1": -0.897, "robust z-score, replicate 2": -1.14, "robust z-score, replicate 3": -0.725, "activity call": "inactive"}
{"gene": "NEU2", "robust z-score, replicate 1": 0.0449, "robust z-score, replicate 2": -0.277, "robust z-score, replicate 3": 0.527, "activity call": "inactive"}
{"gene": "OR7G1", "robust z-score, replicate 1": -0.441, "robust z-score, replicate 2": -0.9, "robust z-score, replicate 3": -1.28, "activity call": "inactive"}

Look-ups from the list.
For “robust z-score, replicate 2”, CCDC40 has 0.423
Entry for SAXO6 in “robust z-score, replicate 1”: -0.162
